# Source: PubChem BioAssay AID1259424 (University of Nebraska Medical Center, 2018)
# Screen: 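Find knockdowns that reproduce the expression shifts seen after KSR1 loss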 (primary screen)
# Cell system: human HCT116 colon cancer cells
# Reagents: siRNA pool against human genes, 50 nM
# Measured: 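Log2 levels of six mRNAs (branched-DNA multiplex), adjusted by two reference genes and the non-targeting median, then scored against the average KSR1 knockdown pattern as Pearson r and euclidean distance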
# Scale: mean correlation with KSR1 profile and KSR1 correlation: higher = expression change more like KSR1 knockdown; mean distance from KSR1 profile: higher = expression change less like KSR1 knockdown
# Shown is a random part of about 14,000 reagents. 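Higher correlation or smaller distance means closer resemblance to KSR1 loss; control wells, including KSR1 knockdowns, recur on many plates.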 Not stated in the record: the time to read-out.
target gene,PubChem SID,mean correlation with KSR1 profile,mean distance from KSR1 profile,"KSR1 correlation, replicate 1","KSR1 correlation, replicate 2","KSR1 correlation, replicate 3"
RAD51,SID363994031,-0.0272,5.05,-0.223,-0.0475,0.0815
CD63,SID363992999,-0.349,1.62,-0.276,-0.605,-0.2
ARMC10,SID364003690,0.699,1.77,0.52,0.626,0.892
SLC1A2,SID363995175,0.186,0.936,-0.136,0.26,0.444
SURF4,SID364004337,0.0931,1.71,0.0301,-0.184,0.383
RILPL2,SID364004642,-0.633,2.72,-0.537,-0.609,-0.749
SOX12,SID363997695,-0.116,3.54,-0.699,-0.232,0.129
HSPA5,SID363996262,0.195,4.05,0.293,0.367,0.00807
DROSHA,SID363998359,0.128,1.56,-0.0221,-0.0808,0.201
BSCL2,SID364004118,-0.466,3.15,-0.376,-0.591,-0.414
ATP2C1,SID363998804,-0.207,2.4,-0.174,-0.399,0.0464
DOCK8,SID364005004,0.183,2.39,0.00693,0.282,-0.0683
NBEA,SID363999641,-0.304,4,-0.159,-0.405,-0.342
RNF170,SID364003521,-0.17,2.21,-0.362,-0.188,-0.023
BRPF1,SID363995602,-0.024,2,0.159,0.06,-0.138
DIO3,SID363992639,-0.0947,2.44,-0.211,-0.267,0.117
EIF4H,SID364002393,-0.185,2.53,-0.153,-0.219,0.0145
USE1,SID364001096,0.293,4.32,0.365,0.286,0.249
LSR,SID363999725,-0.208,4.35,-0.155,-0.198,-0.178
COX7C,SID363993080,-0.516,3.23,-0.32,-0.729,-0.611
MCF2L,SID364003194,-0.683,2.73,-0.456,-0.702,-0.66
FAF2,SID363998983,-0.847,1.66,-0.815,-0.777,-0.662
CD274,SID363998608,0.118,2.54,0.143,-0.153,-0.123
CXCL16,SID364002295,-0.453,2.62,-0.521,-0.346,-0.548
TINAGL1,SID364002387,-0.353,2.69,-0.417,-0.344,-0.364

The list goes on, starting with the last 2 of the part before.
target gene,PubChem SID,mean correlation with KSR1 profile,mean distance from KSR1 profile,"KSR1 correlation, replicate 1","KSR1 correlation, replicate 2","KSR1 correlation, replicate 3"
CXCL16,SID364002295,-0.453,2.62,-0.521,-0.346,-0.548
TINAGL1,SID364002387,-0.353,2.69,-0.417,-0.344,-0.364
SLC12A5,SID364001790,-0.0478,3.4,-0.244,-0.0515,0.335
CCDC6,SID363996342,-0.0222,3.42,-0.0123,0.163,-0.197
APOL4,SID364003390,-0.0416,3.83,-0.124,-0.0496,0.174
TEAD3,SID363994343,0.62,1.17,0.666,0.779,0.37
CD48,SID363992997,0.304,1.97,0.297,0.316,0.408
MSRB1,SID364000039,-0.232,3.54,-0.0243,-0.144,-0.266
REPS2,SID363995685,0.548,1.07,0.349,0.582,0.524
TOB2,SID363999998,0.181,2.35,0.0555,0.279,-0.0687
HDAC6,SID363996895,0.113,1.52,0.19,0.0325,-0.0866
CYP2C18,SID363992063,-0.423,3.02,-0.333,-0.368,-0.615
ALKBH4,SID364000397,-0.58,3.06,-0.749,-0.519,-0.812
FAM135A,SID364005470,0.119,1.57,0.264,0.147,-0.0374
CHEK2,SID363997893,0.746,1.12,0.77,0.56,0.705
DPYSL5,SID364001497,-0.765,3.12,-0.72,-0.573,-0.638
MCF2,SID363996279,-0.00565,1.53,0.0475,0.155,-0.201
HTT,SID363993317,0.467,3.18,0.0833,0.259,0.618
KLF15,SID363998596,0.59,1.38,0.733,0.689,0.283
NODAL,SID364000743,0.763,1.84,0.826,0.748,0.53
COL11A2,SID364004494,-0.176,1.45,-0.0698,-0.304,0.0332
B9D2,SID364003369,0.629,2.25,0.0109,0.811,0.378
KCNG1,SID363993437,-0.171,1.56,-0.336,-0.208,0.0617
TXNL4B,SID364000584,-0.362,2.36,0.122,-0.447,-0.394
TAS2R8,SID364002644,0.359,1.98,0.309,0.505,0.398
TES,SID363999618,-0.219,2.29,-0.0187,-0.414,-0.107
GGNBP2,SID364003100,-0.263,3.45,-0.156,-0.163,-0.342
